Data set [1] concerns thrombin (native human beta-thrombin) (Homo sapiens). Nature of the data set: inhibition of the protein. Conditions: purified native protein, protein details: plasma origin, Haematologic Technologies, single-stranded DNA, mirror-image nucleic acid.
For data set [2] the test system is unchanged. In words: ITC. Conditions: binding not detected, chirality control, purified native protein, protein details: plasma origin, Haematologic Technologies, single-stranded DNA, mirror-image nucleic acid.
The test system is the same in data set [3]. Nature of the data set: activity assay. As to conditions: human plasma coagulation assay, purified native protein, protein details: plasma origin, Haematologic Technologies, single-stranded DNA, mirror-image nucleic acid; for functional effect of the aptamer (fold prothrombin time): L-DNA (all nucleotides), 2.5 uM aptamer.
Data set [4] concerns the target streptavidin (UniProt P22629). Nature of the data set: binding assay. Conditions: L-DNA (all nucleotides), purified recombinant protein, protein details: New England Biolabs, mirror-image nucleic acid.
The test system of data set [5] is thrombin (native human beta-thrombin) (Homo sapiens). In words: binding assay. As to conditions: L-DNA (all nucleotides), purified native protein, protein details: plasma origin, Haematologic Technologies, mirror-image nucleic acid.
The target in data set [6] is streptavidin (UniProt P22629). In words: ITC. As to conditions: L-DNA (all nucleotides), binding not detected, purified recombinant protein, protein details: New England Biolabs, single-stranded DNA, mirror-image nucleic acid.
In data set [7] the test system is thrombin (native bovine alpha-thrombin) (Bos taurus). In words: binding assay. As to conditions: L-DNA (all nucleotides); fluorescence sensor, no response to 1 uM; purified native protein; protein details: plasma origin, Haematologic Technologies; folded or branched DNA; mirror-image nucleic acid; variant of L-9-1t ….
[8] abbreviates: L-DNA (all nucleotides), 10 nM thrombin, 100 uM benzoyl-Phe-Val-Arg-AMC, variant of L-9-2 aptamer.

pIC50: −log10 of the molar value. For some of these results: A negative result means that nothing was seen under these conditions. For some of these results: The exact form of at least one protein or probe is not confirmed.

One may read the pIC50 as the IC50 on a negative log10 scale, so that one unit is a factor of ten.

“CGGATCCAGTTACGGAACGCGTTTCAAGACTACCGTGTTTGTTCCGTTCATTCAGTAAGCTTCGG [L-9-1 aptamer]” gave a pIC50 in data set [1] (L-DNA (all nucleotides), no inhibition of enzymatic activity up to 8 uM despite binding) of less than 5.10. On to “CGGATCCAGTTACGGATGAACTTGTTGAAACCCAACGGGAGAATCGTTCATTCAGTAAGCTTCGG [L-9-2 aptamer]”, for which the pIC50 in data set [1] (L-DNA (all nucleotides), 10 nM thrombin, 100 uM benzoyl-Phe-Val-Arg-AMC) was 6.50. As to “ACGGAACGCGTTTCAAGACTACCGTGTTTGTTCCGT [D-L-9-1t (natural D-DNA version of L-9-1t)]”, in data set [2] (variant of L-9-1t aptamer), the binding result is given as “no binding”. Moreover, in data set [3] (served as control for prolonged prothrombin time, variant of L-9-1t aptamer, dose not given here), the “functional effect of the aptamer” value is “not active”. For “GATGAACTTGTTGAAACCCAACGGGAGAATCGTTCATT [D-L-9-2t (natural D-DNA version of L-9-2t)]”, in data set [2] (variant of L-9-2t aptamer), the binding result is reported as “no binding”. The pIC50 in data set [1] (no inhibition up to 8 uM, chirality control, variant of L-9-2t aptamer) is less than 5.10.

As for “CGGATCCAGTTACGGATGAACTTGTTGAAACCCAACGGGAGCCTCGTTCATTCAGTAAGCTTCGGTGG [L-13 aptamer]”, the pIC50 in data set [1] (setting [8]) was 7.57. Regarding “GATGAACTTGTTGAAACCCAACGGGAGCCTCGTTCATT [Cy5-L-13t aptamer]”, the binding result with streptavidin [4] (aptamer Western blot, 6-180 ng streptavidin, no clear band, label: 5'-Cy5, single-stranded DNA, variant of L-13t aptamer) is recorded as “no binding”; in data set [5] (aptamer Western blot on nitrocellulose, 500 nM aptamer, detection limit <6 ng, label: 5'-Cy5, single-stranded DNA, variant of L-13t aptamer), “binds”. Turning to “GATGAACTTGTTGAAACCCAACGGGAGCCTCGTTCATT [L-13t aptamer]”, the functional effect of the aptamer (fold prothrombin time) in data set [3] (variant of L-13 aptamer) was found to be 2. This sequence also showed a pIC50 in data set [1] (L-DNA (all nucleotides), 10 nM thrombin, 100 uM benzoyl-Phe-Val-Arg-AMC, variant of L-13 aptamer) of 7.34. In the case of “GATGAACTTGTTGAAACCCAACGGGAGAATCGTTCATT [L-9-2t aptamer]”, the binding result with streptavidin [6] (variant of L-9-2 aptamer) was “no binding”. In data set [1] (setting [8]), this sequence showed a pIC50 of 6.32.

For “CAGCTCGGATCCAGTTACGGAACGCGTTTCAAGACTACCGTGTTTGTTCCGT / ACTGGATCCGAGCTG / ACGCGTTCCGT [L-DNA aptamer sensor (L-9-1t based)]”, the binding result in the data set with streptavidin [4] (fluorescence sensor, no response to 1 uM, folded or branched DNA, variant of L-9-1t aptamer) is on record as “no binding”; in data set [7] it was “no binding”; in data set [5] (fluorescence sensor, linear response ~125-1000 nM (~250-2000 nM in 10% serum), 37 C, folded or branched DNA, variant of L-9-1t …), “binds”. Consider “ACGGAACGCGTTTCAAGACTACCGTGTTTGTTCCGT [L-9-1t aptamer]”, for which, in the data set with streptavidin [6] (variant of L-9-1 aptamer), the binding result is on record as “no binding”. Further, the functional effect of the aptamer (fold prothrombin time) in data set [3] (variant of L-9-1 aptamer) worked out at 4. The sequence also showed a pIC50 in data set [1] (L-DNA (all nucleotides), no inhibition of enzymatic activity up to 8 uM despite binding, variant of L-9-1 aptamer) of less than 5.10.

The values above are taken from US20250027090.
